Results of single-concentration screens

The chains behind the UniProt entries cited, without tags or fusion partners. Residues count along the entry.
UniProt P9WPC5, whole entry: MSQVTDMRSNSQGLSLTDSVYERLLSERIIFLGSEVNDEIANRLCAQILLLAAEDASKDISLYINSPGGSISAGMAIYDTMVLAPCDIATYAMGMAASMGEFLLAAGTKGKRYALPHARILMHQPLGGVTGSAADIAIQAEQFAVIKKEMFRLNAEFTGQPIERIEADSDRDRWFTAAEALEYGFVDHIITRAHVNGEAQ
UniProt P9WPC3, whole entry partner: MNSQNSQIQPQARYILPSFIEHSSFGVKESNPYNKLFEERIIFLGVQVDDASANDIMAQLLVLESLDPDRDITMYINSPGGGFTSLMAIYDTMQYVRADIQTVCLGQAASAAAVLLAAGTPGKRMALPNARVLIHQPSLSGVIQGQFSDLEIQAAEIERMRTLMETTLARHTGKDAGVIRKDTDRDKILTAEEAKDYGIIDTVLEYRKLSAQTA
UniProt A4I591, 1-473: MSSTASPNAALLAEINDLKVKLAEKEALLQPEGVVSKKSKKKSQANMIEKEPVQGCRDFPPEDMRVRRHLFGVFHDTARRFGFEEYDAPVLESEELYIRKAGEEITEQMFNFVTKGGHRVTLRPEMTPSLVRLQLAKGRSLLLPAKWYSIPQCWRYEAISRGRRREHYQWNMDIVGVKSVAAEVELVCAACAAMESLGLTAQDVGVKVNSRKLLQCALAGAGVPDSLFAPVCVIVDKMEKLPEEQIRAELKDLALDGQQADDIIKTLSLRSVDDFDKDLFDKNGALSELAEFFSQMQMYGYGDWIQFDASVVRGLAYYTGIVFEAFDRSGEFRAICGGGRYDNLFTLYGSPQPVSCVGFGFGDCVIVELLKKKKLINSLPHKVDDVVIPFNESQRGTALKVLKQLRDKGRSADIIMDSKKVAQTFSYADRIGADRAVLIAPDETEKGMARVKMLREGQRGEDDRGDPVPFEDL

ClpP1P2: 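ClpP1P2, Mycobacterium tuberculosis (UniProt P9WPC5 and UniProt P9WPC3). Protease assay of ClpP1P2, read by the AMC dye that it sets free. Concentration: 50 µM. Direction is inferred from only a few compounds that gave an IC50; most scored high, so higher reads as stronger inhibition. Most other retested compounds had strongly negative values. Size under these conditions: about 69,000 compounds, about 10 of them at 50% or above in at least one test.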
LiHisRS: 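Enzyme assay of histidyl-tRNA synthetase; the read-out is not stated. Target: Histidine-tRNA ligase, Leishmania infantum (UniProt A4I591). Compounds at 30 µM. Direction is inferred from retests: higher values go with stronger inhibition. The assay is labelled LdHisRS but filed under L. infantum. Of about 69,000 compounds tested this way, about 410 (0.6%) reached 50% or more in at least one test.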

Values are the deposited “Percent Effect”, in %. The record does not define 0% and 100%; most values in the screen are far below 50% and negative numbers occur (in some assays of this library far below -100). This is an unselected part of the compounds tested.

| Compound | ClpP1P2 | LiHisRS |
|---|---|---|
| `CCSCC(C)NCc1nncn1C1CCCCC1` (centres undefined) | -0.6814 | 20.19 |
| `CCCc1noc(C(C)N(CC)Cc2ccco2)n1` (centres undefined) | -10.73 | 18.57 |
| `O=S(=O)(c1cnccc1N1CCN(CCO)CC1)N1CCCCC1` | 0.5574 | -1.786 |
| `CN(C)CCn1ccnc1C1CCN(C(=O)CCc2cccnc2)CC1` | -5.245 | 9.917 |
| `O=C(CN1C(=O)CCC1=O)N1CCOCC1` | 15.56 | -15.25 |
| `O=C(Cn1cc(Cl)cn1)NCCN1CCC(O)(c2ccc(F)cc2)CC1` | -2.307 | 5.634 |
| `CC(C)CNc1nc2c(cc1C(=O)NCC1CC1)CCNCC2` | -76.06 | -20.55 |
| `CC(c1ccco1)N(C(=O)c1cc2c([nH]c1=O)CCCC2=O)C1CC1` (centres undefined) | -6.14 | 8.889 |
| `Cn1cc(C(O)CNC(=O)Nc2cc(F)ccc2-n2cccn2)cn1` (centres undefined) | -1.278 | 10.96 |
| `O=C(CN1C(=O)CCNC1=O)N1CCOC(c2ccc(F)cc2)C1` (centres undefined) | -7.735 | 18.75 |
| `O=C(c1ccoc1)N1C[C@@H]2CN(c3ncccn3)C[C@@H]2C1` | -2.713 | 6 |
| `CCc1nccn1C1CCCN(C(=O)c2csc(COC)n2)C1` (centres undefined) | -0.4656 | 3.125 |
| `O=C(c1ccco1)N1CCO[C@@H]2CNCC[C@@H]2C1` | 23.93 | 6 |
| `Cc1cc(C)cc(S(=O)(=O)NCC2CNCCOC2)c1` (centres undefined) | -1.426 | 12.68 |
| `Cc1noc(C)c1CN1CCCC2(CCN(CC3CCCC3)C2)C1` (centres undefined) | 4.401 | -4.587 |
| `Cc1ccc(C(=O)O)c(N2CC(C)(C)[C@@](C)(O)C2)n1` | -1.67 | 2.083 |
| `COC(=O)N1CCC(Nc2ccc(Cl)c(C#N)n2)C1` (centres undefined) | -44.17 | 6.195 |
| `CC(C)NC(=O)c1nnn(-c2cccc(C(F)(F)F)c2)c1C1CC1` | -2.983 | 18.27 |
| `Cn1ccc(C(=O)N2CCCC2c2cc[nH]n2)n1` (centres undefined) | 4.829 | 11.19 |
| `Cn1ncc2c1C(COCC1CC1)CN(c1ncc(F)cn1)C2` (centres undefined) | -7.29 | 4.505 |
| `CCN(CC1CCOC1)C(=O)c1cc(OC)c2c(c1)OCCO2` (centres undefined) | -11.74 | 14.89 |
| `CN(c1ccc(C(=O)NCCCN2CCCC2)c(Cl)c1)S(C)(=O)=O` | -17.41 | 17.65 |
| `CCc1nc(CNC(C)(CO)C2CCCCC2)no1` (centres undefined) | -4.853 | 10.2 |
| `O=S(=O)(Cc1ccccc1)NCc1ccnc(O)c1` | -1.087 | 7.018 |
| `COc1c(CNC2CCCOc3ccc(F)cc32)c(C)nn1C` (centres undefined) | -1.572 | 9.091 |
| `Cc1[nH]ccc1C(=O)N1CCCN1C(=O)OC(C)(C)C` | -9.985 | 13.56 |
| `CNC(=O)c1cc2c(nc1NCC1CC1)CCN(CC1CC1)CC2` | -220.2 | 2.564 |
| `CCCN1CCCC1c1nc(Cc2ccc(F)cc2)no1` (centres undefined) | -5.944 | 6.494 |
| `CC(C)c1cc(C(=O)NCCc2nc3c(s2)CCC3)n(C)n1` | 11.65 | -303.2 |
| `COc1ccc(C(=O)NCCC(N)=O)c(I)c1` | 4.775 | 0 |
| `Cc1ccoc1CNC(C)c1nnc2n1CCCC2` (centres undefined) | -12.16 | 9.091 |
| `CC(C)=CCN1CCN(S(=O)(=O)c2cn(C)cn2)[C@H]2CS(=O)(=O)C[C@H]21` | 24.73 | -3.175 |
| `CCNc1cc2c(nn1)CCN(C(=O)Cc1ccc(C)nc1)C2` | -27.12 | 8.333 |
| `CC(C)c1nc(C2CCCN2c2ncc(C(N)=O)cc2Cl)no1` (centres undefined) | 1.219 | 18.97 |
| `O=C(c1ccco1)N1CCC12CCN(c1ncc(F)cn1)CC2` | -3.126 | 26.92 |
| `CCOc1ccc(Br)cc1C1CCCN1` (centres undefined) | -8.649 | -7.895 |
| `Cc1nccn1CCN1C(=O)CC2(CCCC2)CC1=O` | -6.695 | 1.667 |
| `CCSCc1ccc(C(=O)N2CCCN(CC)CC2)cc1` | -4.104 | 13.83 |
| `CCNC(=O)CN(Cc1ccoc1)C1CCCCC1` | -0.8094 | 9.524 |
| `C[C@@H]1CN(CCC(=O)NCc2ccccc2Cl)CC[C@@]1(O)C1CCC1` | -7.237 | 10 |
| `CN1CCCCCC1C(=O)NCCCn1ncc2ccccc21` (centres undefined) | -8.241 | 13.92 |
| `CCc1nn(C)c2[nH]nc(NC(=O)c3cccnc3OC)c12` | -1.833 | 14.81 |
| `CC(=O)N1CCN(Cc2ccc(Cl)c(F)c2)CC(O)C1` (centres undefined) | -0.5065 | -2.5 |
| `CNS(=O)(=O)c1ccc(CCC(=O)NCc2cccc(OC)c2)cc1` | -0.4825 | 13.83 |
| `Cn1cc(C2COC3(CCN(C(=O)c4cnccn4)CC3)C2)cn1` (centres undefined) | -7.591 | 18 |
| `CC1c2ncc(COCC3CCOCC3)n2CCN1C(=O)c1ccco1` (centres undefined) | 3.754 | 10.91 |
| `CCOc1nnc(CN(CC)CC(=O)Nc2c(F)cccc2F)s1` | 11.48 | 24.47 |
| `COC[C@]1(O)CCN(c2cc(C3CC3)ncn2)CC1(C)C` | -5.778 | 8.333 |
| `Cc1nc(CCN)cc(N2CCC(O)(c3ccccc3)C2)n1` (centres undefined) | -3.691 | 7.042 |
| `CC(C)CCOc1ccc(C(C)NC(=O)CSCC(N)=O)cc1` (centres undefined) | -3.801 | 16.07 |
| `CC(NC(=O)NCC1(c2ccccc2)CCC1)c1nncn1C` (centres undefined) | -4.178 | 7.576 |

For reference, 6 entries once more:

{"compound": "CC(NC(=O)NCC1(c2ccccc2)CCC1)c1nncn1C", "stereo": "centres undefined", "ClpP1P2": -4.178, "LiHisRS": 7.576}
{"compound": "C[C@@H]1CN(CCC(=O)NCc2ccccc2Cl)CC[C@@]1(O)C1CCC1", "ClpP1P2": -7.237, "LiHisRS": 10}
{"compound": "CC(C)c1cc(C(=O)NCCc2nc3c(s2)CCC3)n(C)n1", "ClpP1P2": 11.65, "LiHisRS": -303.2}
{"compound": "CNS(=O)(=O)c1ccc(CCC(=O)NCc2cccc(OC)c2)cc1", "ClpP1P2": -0.4825, "LiHisRS": 13.83}
{"compound": "CNC(=O)c1cc2c(nc1NCC1CC1)CCN(CC1CC1)CC2", "ClpP1P2": -220.2, "LiHisRS": 2.564}
{"compound": "Cn1cc(C(O)CNC(=O)Nc2cc(F)ccc2-n2cccn2)cn1", "stereo": "centres undefined", "ClpP1P2": -1.278, "LiHisRS": 10.96}

Data taken from ChEMBL document CHEMBL3988442, “University of Dundee, Small-Polar-MMV Screening Library” (2021).